Source: publication PMC8167299, “Cardio- and reno-protective effects of dipeptidyl peptidase III in diabetic mice” (The Journal of Biological Chemistry, 2021)
No constants are given. Whether binding was seen depends on the method and setting. Some results given as binding are weak or reduced against the parent protein; the word gives no strength.

Molecular target: T1, C3a receptor 1 (human (endogenous in HUVEC)) (UniProt Q16581)
T1 sequence: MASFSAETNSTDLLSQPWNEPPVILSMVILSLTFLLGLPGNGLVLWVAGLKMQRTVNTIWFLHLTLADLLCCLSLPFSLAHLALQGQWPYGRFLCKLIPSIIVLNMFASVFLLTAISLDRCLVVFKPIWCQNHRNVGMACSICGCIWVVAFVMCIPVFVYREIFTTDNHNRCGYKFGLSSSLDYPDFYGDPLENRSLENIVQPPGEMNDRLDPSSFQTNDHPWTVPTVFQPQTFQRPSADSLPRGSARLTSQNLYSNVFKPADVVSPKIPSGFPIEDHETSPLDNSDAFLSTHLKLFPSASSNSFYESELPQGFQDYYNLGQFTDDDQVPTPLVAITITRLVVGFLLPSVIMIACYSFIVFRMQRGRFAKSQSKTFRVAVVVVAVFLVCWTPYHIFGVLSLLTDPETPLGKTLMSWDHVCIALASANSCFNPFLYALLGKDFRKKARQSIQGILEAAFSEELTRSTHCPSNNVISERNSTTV
Test: fluorescence confocal microscopy of a FITC-labelled peptide attached to cells; HUVECs with or without C3aR knockdown (siC3aR #2 or scramble RNA) incubated with the indicated concentrations of FITC-Peptide 2 (200 μmol/l in Fig. 7B) for 2 h at 4 °C, washed with PBS three times, fixed with 4% paraformaldehyde; only the binder purified

binding: binds
Binder: RLLWENGNL (FITC-conjugated (position not given)) [FITC-conjugated Peptide 2]
